Results reported in PubChem BioAssay AID504467 (National Center for Advancing Translational Sciences (NCATS), 2011).
Screen size: about 330,000 compounds; about 7,700 (2.3%) were called active. Inconclusive means that the source gave no clear call. Such entries were picked first, then a sample of the others. The call rests on the fitted dose curve; in most records, active means well fitted inhibition curve with a large enough effect; inconclusive means small, poorly fitted or top-dose-only effect, or effect the other way; inactive means flat fitted curve, though single readings scatter. Potencies of inconclusive entries are doubtful fits and often do not repeat.

test: qHTS screen for small molecules that inhibit ELG1-dependent DNA repair in human embryonic kidney (HEK293T) cells expressing luciferase-tagged ELG1; settings: HEK293T ELG1-luciferase reporter, luminescence, 16 h, DNA damage induced by 5-fluorouridine; series mostly up to 46.1 µM; further: nearly all actives have a fitted effect of over 55% in size
How it was run: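 In this reporter screen, reduction of luminescence relative to DMSO vehicle indicated activity. Compounds and 5-fluorouridine were added together to 2,000 cells per well, incubated for 16 hr at 37 °C, then developed with ONE-Glo.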
Potency means the concentration at half of the fitted maximal effect.

**Q.** With `COC(=O)Nc1ccc(S(=O)(=O)N2CCCC(C(=O)NCC3CCCO3)C2)cc1` (stereo unspecified) as the compound, how does the Potency read?
**A.** inactive

**Q.** With `COc1cc(CNc2ccc3[nH]c(=O)[nH]c3c2)ccc1OCc1ccc(F)cc1Cl` as the compound, how does the Potency read?
**A.** inconclusive: 1.03 µM [inhibitor, partial curve, poor fit]

**Q.** With `N=C1/C(=C\c2ccc(OC(=O)c3ccccc3)cc2)C(=O)N=C2SC(N3CCOCC3)=NN12` as the compound, how does the Potency read?
**A.** inactive

**Q.** Which Potency does the source give for `O=C(OCCCc1cc2ccccc2c(=O)o1)N1CCOCC1` here?
**A.** inconclusive: 16.4 µM [activator, partial curve, poor fit]

**Q.** With `Cc1ccc(S(=O)(=O)N2CCN(C(=O)c3c(-c4ccccc4)noc3C)CC2)cc1` as the compound, how does the Potency read?
**A.** inconclusive: 8.2 µM [inhibitor, partial curve, poor fit]

**Q.** For `COc1ccc(OC)c(S(=O)(=O)N2CCCCC2C(=O)N2CCN(c3ccccn3)CC2)c1` (stereo unspecified), which Potency is on record?
**A.** inconclusive: 18.4 µM [inhibitor, single point]

**Q.** With `CC(=O)N1CCN(C(=O)c2ccc(-c3ccccc3Cl)o2)CC1` as the compound, how does the Potency read?
**A.** inconclusive: 12.6 µM [activator, partial curve]

**Q.** With `O=C(Cc1csc(Nc2nc(=S)[nH]c3ccccc23)n1)NCCCN1CCN(c2cccc(Cl)c2)CC1` as the compound, how does the Potency read?
**A.** inconclusive: 16.4 µM [activator, partial curve]

**Q.** For `O=C(c1ccc2c(c1)OCCO2)C1CCN(C(=O)Nc2ccc(F)cc2)CC1`, which Potency is on record?
**A.** inconclusive: 29.1 µM [inhibitor, single point]

**Q.** With `Cc1cc(C(=O)NNC(=S)Nc2ccccc2C)cs1` as the compound, how does the Potency read?
**A.** inconclusive: 9.2 µM [activator, partial curve]

**Q.** Which Potency does the source give for `COc1ccc(CNC(=O)C2Cc3cc(S(=O)(=O)N4CCCC4)ccc3N2C(C)=O)c(OC)c1` (stereo unspecified) here?
**A.** inactive

**Q.** For `CCc1ccc(C(=O)CN2CCSC2=N)cc1`, which Potency is on record?
**A.** inconclusive: 7.31 µM [activator, partial curve]

**Q.** For `CC(=O)Nc1nc2cc(N)ccc2s1`, which Potency is on record?
**A.** inactive

**Q.** For `NS(=O)(=O)c1ccc(NC(=S)N2CCN(Cc3ccc4c(c3)OCO4)CC2)cc1`, which Potency is on record?
**A.** inconclusive: 29.1 µM [inhibitor, single point]

**Q.** Which Potency does the source give for `Cc1ccc(C)c(NC(=O)Nn2cnnc2)c1` here?
**A.** inactive

**Q.** With `COc1cc2cnc(-c3ccccc3)c(-c3cc(OC)c(OC)c(OC)c3)c2cc1OC` as the compound, how does the Potency read?
**A.** active: 9.2 µM

**Q.** With `COC(=O)Nc1sc2c(c1C(=O)NCc1ccco1)CCCC2` as the compound, how does the Potency read?
**A.** inactive

**Q.** With `CC(C)C(=O)Nc1cccc(C(=O)Nc2nnc(C(C)(C)C)s2)c1` as the compound, how does the Potency read?
**A.** inactive

**Q.** For `Cc1nonc1OCCn1c([N+](=O)[O-])cnc1C`, which Potency is on record?
**A.** inactive

**Q.** For `COc1cccc(-c2nc(CS(=O)(=O)CC(=O)N3CCN(c4ccccn4)CC3)c(C)o2)c1`, which Potency is on record?
**A.** inconclusive: 16.4 µM [inhibitor, partial curve]

**Q.** For `c1coc(-c2nnc(-c3ccc4c(c3)OCO4)o2)c1`, which Potency is on record?
**A.** inconclusive: 4.61 µM [activator, partial curve]

**Q.** With `O=C(Cc1ccccc1)NC(=S)Nc1ccc2oc(-c3ccccc3)nc2c1` as the compound, how does the Potency read?
**A.** inconclusive: 9.2 µM [activator, partial curve]

**Q.** For `C[C@H](NC(=O)OCc1ccccc1)C(=O)NNC(=O)[C@H](Cc1ccccc1)NC(=O)OC(C)(C)C`, which Potency is on record?
**A.** inconclusive: 20.6 µM [activator, partial curve, poor fit]

**Q.** For `CNC(=O)c1ccsc1NC(=O)c1ccc(S(=O)(=O)N2CCCc3ccccc32)cc1`, which Potency is on record?
**A.** inconclusive: 16.4 µM [inhibitor, partial curve]

**Q.** With `NC(=O)N/N=C/c1ccc(-c2ccc([N+](=O)[O-])cc2)o1` as the compound, how does the Potency read?
**A.** inactive

**Q.** Which Potency does the source give for `COc1ccc(C)cc1CN(C)c1ccc(S(=O)(=O)N2CCN(C)CC2)cn1` here?
**A.** inactive

**Q.** With `COc1ccccc1Cn1c(C)nc2ccccc21` as the compound, how does the Potency read?
**A.** inconclusive: 29.1 µM [inhibitor, single point]

**Q.** For `Nc1ccc(-c2nc(-c3ccccc3)nc3ccccc23)cc1`, which Potency is on record?
**A.** inactive

**Q.** With `Cc1ccn2c(NC3CCCCC3)c(C)nc2c1` as the compound, how does the Potency read?
**A.** inactive

**Q.** For `CCOc1ccccc1C1NC(=O)NC(C)=C1C(=O)OC1CCCC1C` (stereo unspecified), which Potency is on record?
**A.** inactive

**Q.** Which Potency does the source give for `N/C(=N\OC(=O)COc1ccc(Cl)cc1)c1cccnc1` here?
**A.** inconclusive: 18.4 µM [activator, single point]

**Q.** For `COc1ccccc1CNc1nc(C)c(C(C)=O)s1`, which Potency is on record?
**A.** inactive

**Q.** With `COc1ccc2[nH]c3c(NCCCN4CCCC4=O)ncnc3c2c1` as the compound, how does the Potency read?
**A.** inconclusive: 23.1 µM [activator, partial curve]

**Q.** With `NC(=O)c1sc(-c2ccsc2)cc1NS(=O)(=O)c1ccc(C(F)(F)F)cc1` as the compound, how does the Potency read?
**A.** active: 18.3 µM

**Q.** With `Cc1ccccc1N(CC(=O)NCC1CCCO1)C(=O)CNS(=O)(=O)c1ccc(F)cc1` (stereo unspecified) as the compound, how does the Potency read?
**A.** inactive

**Q.** With `CN(C)c1ccc(CN(C(=O)C2COc3ccccc3O2)C2CCS(=O)(=O)C2)cc1` (stereo unspecified) as the compound, how does the Potency read?
**A.** inactive

**Q.** Which Potency does the source give for `Cc1ccc(NC(=O)CC2S/C(=N/N=C/C=C/c3ccccc3)NC2=O)cc1Cl` (stereo unspecified) here?
**A.** inactive

**Q.** Which Potency does the source give for `CCC(CO)NCc1sccc1C` (stereo unspecified) here?
**A.** inconclusive: 29.1 µM [inhibitor, single point]

**Q.** Which Potency does the source give for `COC(=O)c1[nH]c2ccccc2c1NC(=O)C(C)N1CCN(C(=O)c2ccco2)CC1` (stereo unspecified) here?
**A.** inconclusive: 23.1 µM [inhibitor, partial curve]

**Q.** Which Potency does the source give for `CCNC(=S)NNC(=O)c1csc(C(C)C)c1` here?
**A.** inconclusive: 18.4 µM [activator, partial curve]

**Q.** For `NC(=O)c1nsc(C(=O)N(c2ccccc2F)C(C(=O)NCc2ccc(F)cc2)c2ccc(O)cc2)c1N` (stereo unspecified), which Potency is on record?
**A.** inconclusive: 7.3 µM [inhibitor, partial curve, poor fit]

**Q.** With `Nc1nc(SCC(=O)Nc2cccc(S(=O)(=O)N3CCCCCC3)c2)n[nH]1` as the compound, how does the Potency read?
**A.** inactive

**Q.** Which Potency does the source give for `Cn1c(=O)n(C)c2cc(S(=O)(=O)NCCc3ccccc3)ccc21` here?
**A.** inconclusive: 10.3 µM [inhibitor, partial curve]

**Q.** With `CCN(CC(=O)Nc1ccc2c(c1)OCCO2)Cc1nc2cc(Cl)ccc2c(=O)[nH]1` as the compound, how does the Potency read?
**A.** inconclusive: 29.1 µM [inhibitor, single point]

**Q.** Which Potency does the source give for `O=C(CSc1nnc(-c2cccs2)n1Cc1ccco1)c1ccc2c(c1)OCO2` here?
**A.** inconclusive: 25.9 µM [inhibitor, partial curve, poor fit]

**Q.** For `C[C@H](NC(=O)c1ccccc1)C(=O)N1CCN(Cc2ccc3c(c2)OCO3)CC1`, which Potency is on record?
**A.** inactive
